# Test results: publication PMC7026229
# These are yes or no findings as the source states them, for the method shown. In cells and extracts the contact can be indirect. Some entries that bind do so weakly or less than the wild type.
# T1: ZBTB24 (zinc finger- and BTB domain-containing 24), ectopically expressed (UniProt Q80X44)
# T1 sequence: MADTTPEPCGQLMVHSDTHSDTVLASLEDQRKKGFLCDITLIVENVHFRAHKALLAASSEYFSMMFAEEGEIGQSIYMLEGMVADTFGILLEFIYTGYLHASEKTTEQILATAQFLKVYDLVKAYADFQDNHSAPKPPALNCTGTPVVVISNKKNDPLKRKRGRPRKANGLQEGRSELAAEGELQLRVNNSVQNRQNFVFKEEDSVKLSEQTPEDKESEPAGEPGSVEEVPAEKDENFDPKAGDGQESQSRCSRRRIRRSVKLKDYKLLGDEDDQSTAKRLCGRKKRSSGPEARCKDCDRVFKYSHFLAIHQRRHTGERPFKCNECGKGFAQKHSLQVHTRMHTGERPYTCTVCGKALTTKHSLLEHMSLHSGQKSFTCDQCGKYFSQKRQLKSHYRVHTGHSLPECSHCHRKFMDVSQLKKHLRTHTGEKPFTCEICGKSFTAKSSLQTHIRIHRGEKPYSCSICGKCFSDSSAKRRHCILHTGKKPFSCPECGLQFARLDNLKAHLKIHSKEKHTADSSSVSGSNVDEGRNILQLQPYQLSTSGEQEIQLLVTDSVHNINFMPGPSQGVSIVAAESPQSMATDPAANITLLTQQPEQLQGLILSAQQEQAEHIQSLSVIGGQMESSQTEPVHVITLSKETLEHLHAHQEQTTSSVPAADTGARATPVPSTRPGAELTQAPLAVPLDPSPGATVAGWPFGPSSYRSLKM
# T2: ZBTB24, endogenous in mouse embryonic stem cells (mouse (endogenous in mESCs)) (UniProt Q80X44)
# T2 sequence: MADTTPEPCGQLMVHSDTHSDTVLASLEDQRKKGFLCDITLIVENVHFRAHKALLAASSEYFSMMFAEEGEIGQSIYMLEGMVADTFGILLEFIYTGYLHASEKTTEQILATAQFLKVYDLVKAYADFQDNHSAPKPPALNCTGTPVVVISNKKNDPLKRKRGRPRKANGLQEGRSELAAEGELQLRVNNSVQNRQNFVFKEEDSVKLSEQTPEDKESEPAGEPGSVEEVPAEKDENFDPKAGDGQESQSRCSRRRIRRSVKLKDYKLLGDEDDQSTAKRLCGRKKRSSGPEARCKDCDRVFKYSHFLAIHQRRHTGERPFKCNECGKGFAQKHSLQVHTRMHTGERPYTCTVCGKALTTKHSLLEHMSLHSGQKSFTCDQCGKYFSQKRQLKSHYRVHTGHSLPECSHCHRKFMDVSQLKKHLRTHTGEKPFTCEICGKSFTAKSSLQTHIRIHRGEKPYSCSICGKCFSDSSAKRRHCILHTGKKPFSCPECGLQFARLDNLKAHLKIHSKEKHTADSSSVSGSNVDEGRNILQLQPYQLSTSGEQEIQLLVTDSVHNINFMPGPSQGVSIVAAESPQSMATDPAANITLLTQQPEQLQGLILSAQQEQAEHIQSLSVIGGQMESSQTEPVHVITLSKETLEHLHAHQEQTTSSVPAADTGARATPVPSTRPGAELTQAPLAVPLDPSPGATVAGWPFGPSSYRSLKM
# T3: CDCA7 (cell division cycle associated 7) (UniProt Q9D0M2)
# T3 sequence: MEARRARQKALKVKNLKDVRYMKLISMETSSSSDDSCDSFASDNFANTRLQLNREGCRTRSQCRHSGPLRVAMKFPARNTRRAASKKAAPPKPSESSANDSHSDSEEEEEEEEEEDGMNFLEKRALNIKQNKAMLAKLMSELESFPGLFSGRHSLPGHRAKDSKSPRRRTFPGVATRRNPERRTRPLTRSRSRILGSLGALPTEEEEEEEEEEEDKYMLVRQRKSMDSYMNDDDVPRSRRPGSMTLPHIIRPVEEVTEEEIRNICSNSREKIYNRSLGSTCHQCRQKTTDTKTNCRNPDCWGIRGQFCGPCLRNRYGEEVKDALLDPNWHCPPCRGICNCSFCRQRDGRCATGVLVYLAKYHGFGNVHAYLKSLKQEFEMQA
# B1: HELLS (helicase, lymphoid-specific) (enzyme, UniProt Q60848 1-821)
# chain: MAEQTEPAVITPAMLEEEEQLEAAGLEKERKMLEEAQKSWDRESTEIRYRRLQHLLEKSNIYSKFLLTKMEQQQLEEQKKKEKLEKKKRSLKLTEGKSLVDGNGEKPVMKKKRGREDESYNISEVMSKEEILSVAKKHKDNEDESSSTTSLCVEDIQKNKDSNSMIKDRLSQTVRQNSKFFFDPVRKCNGQPVPFQQPKHFTGGVMRWYQVEGMEWLRMLWENGINGILADEMGLGKTVQCIATIALMIQRGVPGPFLVCGPLSTLPNWMAEFKRFTPEIPTLLYHGTREDRRKLVKNIHKRQGTLQIHPVVVTSFEIAMRDQNALQHCYWKYLIVDEGHRIKNMKCRLIRELKRFNADNKLLLTGTPLQNNLSELWSLLNFLLPDVFDDLKSFESWFDITSLSETAEDIIAKEREQNVLHMLHQILTPFLLRRLKSDVALEVPPKREVVVYAPLCNKQEIFYTAIVNRTIANMFGSCEKETVELSPTGRPKRRSRKSINYSELDQFPSELEKLISQIQPEVNRERTVVEGNIPIESEVNLKLRNIMMLLRKCCNHPYMIEYPIDPVTQEFKIDEELVTNSGKFLILDRMLPELKKRGHKVLVFSQMTSMLDILMDYCHLRNFIFSRLDGSMSYSEREKNIYSFNTDPDVFLFLVSTRAGGLGINLTAADTVIIYDSDWNPQSDLQAQDRCHRIGQTKPVVVYRLVTANTIDQKIVERAAAKRKLEKLIIHKNHFKGGQSGLSQSKNFLDAKELMELLKSRDYEREVKGSREKVISDEDLELLLDRSDLIDQMKASRPIKGKTGIFKILENSEDSSAECLF
# Legend:
# [1] = target: T1, ZBTB24 (zinc finger- and BTB domain-containing 24), ectopically expressed; assay: co-IP; reciprocal co-IP of ectopically expressed proteins in HEK293 cells
# [2] = target: T2, ZBTB24, endogenous in mouse embryonic stem cells (mouse (endogenous in mESCs)); assay: co-IP; reciprocal co-IP of endogenous proteins in mouse embryonic stem cells (mESCs)
# [3] = target: T3, CDCA7 (cell division cycle associated 7); assay: co-IP; co-IP of CDCA7 (wild type and ICF3 substitutions) with HELLS; no figure cited, cells and constructs not told
molecule,measurement,setting,value
"DNMT3B (DNA methyltransferase 3B), ectopically expressed (from UniProt O88509 1-859) (enzyme)",binding,[1],no binding
"DNMT3B, endogenous in mouse embryonic stem cells (from UniProt O88509 1-859) (enzyme)",binding,[2],no binding
B1,binding,[3],binds
